These are yes or no findings as the source states them, for the method shown. In cells and extracts the contact can be indirect. Here binding means that the protein was enriched with, or labelled near, the bait; the list need not be complete.

Chains of the proteins cited; added tags and fusions are not shown. Residues count along the entry.
UniProt O15169: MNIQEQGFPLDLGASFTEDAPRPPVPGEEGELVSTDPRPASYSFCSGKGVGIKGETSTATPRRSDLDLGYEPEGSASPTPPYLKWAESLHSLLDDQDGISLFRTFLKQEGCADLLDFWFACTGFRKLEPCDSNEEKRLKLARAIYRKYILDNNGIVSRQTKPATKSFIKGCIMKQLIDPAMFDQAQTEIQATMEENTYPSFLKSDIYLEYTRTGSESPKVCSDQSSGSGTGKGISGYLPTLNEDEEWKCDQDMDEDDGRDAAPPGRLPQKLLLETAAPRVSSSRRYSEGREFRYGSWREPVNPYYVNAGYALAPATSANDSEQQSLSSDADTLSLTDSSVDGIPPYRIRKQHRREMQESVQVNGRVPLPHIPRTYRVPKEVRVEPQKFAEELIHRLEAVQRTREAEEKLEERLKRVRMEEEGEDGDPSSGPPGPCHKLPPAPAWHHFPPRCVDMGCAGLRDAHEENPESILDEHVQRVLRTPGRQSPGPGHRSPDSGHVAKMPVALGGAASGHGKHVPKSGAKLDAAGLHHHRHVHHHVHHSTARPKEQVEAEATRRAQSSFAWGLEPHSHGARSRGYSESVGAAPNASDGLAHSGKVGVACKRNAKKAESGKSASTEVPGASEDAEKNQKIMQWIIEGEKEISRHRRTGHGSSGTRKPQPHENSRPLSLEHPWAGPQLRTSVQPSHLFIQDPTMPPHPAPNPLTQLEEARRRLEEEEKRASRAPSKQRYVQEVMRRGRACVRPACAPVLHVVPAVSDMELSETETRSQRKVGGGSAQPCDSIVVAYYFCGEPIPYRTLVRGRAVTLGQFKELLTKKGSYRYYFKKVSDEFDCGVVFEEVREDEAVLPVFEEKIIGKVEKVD
UniProt P49674: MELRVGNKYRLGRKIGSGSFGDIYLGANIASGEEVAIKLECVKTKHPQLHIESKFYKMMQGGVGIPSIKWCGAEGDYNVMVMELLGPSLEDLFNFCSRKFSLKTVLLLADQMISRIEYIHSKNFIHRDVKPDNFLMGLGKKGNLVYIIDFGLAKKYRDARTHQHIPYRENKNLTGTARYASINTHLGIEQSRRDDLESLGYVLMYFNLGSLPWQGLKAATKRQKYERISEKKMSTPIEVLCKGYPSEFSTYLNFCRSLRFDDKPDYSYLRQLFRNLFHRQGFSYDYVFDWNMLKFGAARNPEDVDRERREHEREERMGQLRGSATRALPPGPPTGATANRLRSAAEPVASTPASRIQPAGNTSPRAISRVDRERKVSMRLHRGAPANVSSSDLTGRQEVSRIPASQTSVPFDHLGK
UniProt O14641: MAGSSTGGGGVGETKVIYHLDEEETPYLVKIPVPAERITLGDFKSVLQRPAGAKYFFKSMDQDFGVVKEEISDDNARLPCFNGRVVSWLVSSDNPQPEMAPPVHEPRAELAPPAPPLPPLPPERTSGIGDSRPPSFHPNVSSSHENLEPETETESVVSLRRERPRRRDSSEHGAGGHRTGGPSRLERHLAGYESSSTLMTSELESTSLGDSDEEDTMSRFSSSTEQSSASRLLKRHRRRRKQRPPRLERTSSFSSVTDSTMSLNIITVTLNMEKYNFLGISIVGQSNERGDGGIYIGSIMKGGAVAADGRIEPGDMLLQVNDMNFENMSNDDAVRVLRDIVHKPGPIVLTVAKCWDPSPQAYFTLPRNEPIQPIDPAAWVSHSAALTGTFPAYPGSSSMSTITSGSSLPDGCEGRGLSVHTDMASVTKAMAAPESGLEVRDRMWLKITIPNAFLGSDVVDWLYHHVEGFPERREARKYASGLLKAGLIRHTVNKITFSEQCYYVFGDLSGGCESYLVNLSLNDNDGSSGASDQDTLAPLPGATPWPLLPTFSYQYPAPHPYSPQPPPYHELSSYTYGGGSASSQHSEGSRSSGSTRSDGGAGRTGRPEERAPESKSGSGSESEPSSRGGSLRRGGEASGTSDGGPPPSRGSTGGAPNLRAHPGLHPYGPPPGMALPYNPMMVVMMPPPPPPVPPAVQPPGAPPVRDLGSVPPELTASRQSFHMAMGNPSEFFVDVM
UniProt Q13467, residues 27-585: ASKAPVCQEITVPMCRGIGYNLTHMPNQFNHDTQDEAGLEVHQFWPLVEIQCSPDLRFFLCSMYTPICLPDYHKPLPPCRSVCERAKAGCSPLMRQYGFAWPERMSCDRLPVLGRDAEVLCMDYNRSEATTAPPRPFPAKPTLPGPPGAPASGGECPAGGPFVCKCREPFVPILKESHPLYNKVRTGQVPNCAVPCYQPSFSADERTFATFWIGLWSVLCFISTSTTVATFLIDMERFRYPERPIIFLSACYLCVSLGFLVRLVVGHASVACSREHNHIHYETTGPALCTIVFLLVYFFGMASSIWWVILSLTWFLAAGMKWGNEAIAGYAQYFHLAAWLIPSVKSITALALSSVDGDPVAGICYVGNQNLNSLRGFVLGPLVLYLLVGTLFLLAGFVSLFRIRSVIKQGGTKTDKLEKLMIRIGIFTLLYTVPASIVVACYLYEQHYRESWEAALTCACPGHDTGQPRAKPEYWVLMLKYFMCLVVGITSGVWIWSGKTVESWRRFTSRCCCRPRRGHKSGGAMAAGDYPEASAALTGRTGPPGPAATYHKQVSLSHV
UniProt Q68DV7, residues 24-783: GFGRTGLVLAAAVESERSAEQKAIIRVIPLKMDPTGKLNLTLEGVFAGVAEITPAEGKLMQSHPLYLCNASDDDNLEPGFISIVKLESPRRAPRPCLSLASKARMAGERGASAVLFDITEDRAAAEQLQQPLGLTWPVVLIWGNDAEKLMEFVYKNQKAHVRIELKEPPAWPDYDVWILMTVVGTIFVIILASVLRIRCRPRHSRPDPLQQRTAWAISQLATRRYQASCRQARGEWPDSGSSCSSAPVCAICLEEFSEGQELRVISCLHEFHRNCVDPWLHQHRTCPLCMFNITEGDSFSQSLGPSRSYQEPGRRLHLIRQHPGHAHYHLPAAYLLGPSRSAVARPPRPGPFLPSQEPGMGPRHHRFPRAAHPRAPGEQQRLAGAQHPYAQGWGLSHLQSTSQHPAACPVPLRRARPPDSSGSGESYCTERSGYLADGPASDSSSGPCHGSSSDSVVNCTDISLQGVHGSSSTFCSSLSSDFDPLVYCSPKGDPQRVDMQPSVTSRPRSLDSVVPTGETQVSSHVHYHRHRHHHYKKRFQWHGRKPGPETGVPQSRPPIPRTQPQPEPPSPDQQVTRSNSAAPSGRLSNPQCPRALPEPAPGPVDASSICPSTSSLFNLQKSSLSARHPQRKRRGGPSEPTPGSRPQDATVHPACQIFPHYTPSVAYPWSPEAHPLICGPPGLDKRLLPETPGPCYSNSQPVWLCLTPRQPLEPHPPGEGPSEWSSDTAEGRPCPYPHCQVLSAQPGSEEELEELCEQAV
UniProt P34925, residues 26-607: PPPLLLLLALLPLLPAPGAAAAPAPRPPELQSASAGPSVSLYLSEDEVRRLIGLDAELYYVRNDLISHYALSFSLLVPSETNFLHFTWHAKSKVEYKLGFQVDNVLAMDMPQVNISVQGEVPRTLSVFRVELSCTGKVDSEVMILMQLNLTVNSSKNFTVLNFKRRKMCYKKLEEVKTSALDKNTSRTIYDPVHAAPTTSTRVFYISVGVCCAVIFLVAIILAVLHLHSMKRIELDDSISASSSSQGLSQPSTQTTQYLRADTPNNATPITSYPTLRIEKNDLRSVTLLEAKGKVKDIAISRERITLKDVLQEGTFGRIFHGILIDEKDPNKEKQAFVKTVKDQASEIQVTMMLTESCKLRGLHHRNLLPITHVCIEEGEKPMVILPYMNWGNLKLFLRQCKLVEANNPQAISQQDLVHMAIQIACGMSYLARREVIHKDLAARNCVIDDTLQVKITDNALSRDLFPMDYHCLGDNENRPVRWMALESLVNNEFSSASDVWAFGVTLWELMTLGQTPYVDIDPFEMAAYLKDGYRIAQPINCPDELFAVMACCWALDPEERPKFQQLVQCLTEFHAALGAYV
UniProt O95271: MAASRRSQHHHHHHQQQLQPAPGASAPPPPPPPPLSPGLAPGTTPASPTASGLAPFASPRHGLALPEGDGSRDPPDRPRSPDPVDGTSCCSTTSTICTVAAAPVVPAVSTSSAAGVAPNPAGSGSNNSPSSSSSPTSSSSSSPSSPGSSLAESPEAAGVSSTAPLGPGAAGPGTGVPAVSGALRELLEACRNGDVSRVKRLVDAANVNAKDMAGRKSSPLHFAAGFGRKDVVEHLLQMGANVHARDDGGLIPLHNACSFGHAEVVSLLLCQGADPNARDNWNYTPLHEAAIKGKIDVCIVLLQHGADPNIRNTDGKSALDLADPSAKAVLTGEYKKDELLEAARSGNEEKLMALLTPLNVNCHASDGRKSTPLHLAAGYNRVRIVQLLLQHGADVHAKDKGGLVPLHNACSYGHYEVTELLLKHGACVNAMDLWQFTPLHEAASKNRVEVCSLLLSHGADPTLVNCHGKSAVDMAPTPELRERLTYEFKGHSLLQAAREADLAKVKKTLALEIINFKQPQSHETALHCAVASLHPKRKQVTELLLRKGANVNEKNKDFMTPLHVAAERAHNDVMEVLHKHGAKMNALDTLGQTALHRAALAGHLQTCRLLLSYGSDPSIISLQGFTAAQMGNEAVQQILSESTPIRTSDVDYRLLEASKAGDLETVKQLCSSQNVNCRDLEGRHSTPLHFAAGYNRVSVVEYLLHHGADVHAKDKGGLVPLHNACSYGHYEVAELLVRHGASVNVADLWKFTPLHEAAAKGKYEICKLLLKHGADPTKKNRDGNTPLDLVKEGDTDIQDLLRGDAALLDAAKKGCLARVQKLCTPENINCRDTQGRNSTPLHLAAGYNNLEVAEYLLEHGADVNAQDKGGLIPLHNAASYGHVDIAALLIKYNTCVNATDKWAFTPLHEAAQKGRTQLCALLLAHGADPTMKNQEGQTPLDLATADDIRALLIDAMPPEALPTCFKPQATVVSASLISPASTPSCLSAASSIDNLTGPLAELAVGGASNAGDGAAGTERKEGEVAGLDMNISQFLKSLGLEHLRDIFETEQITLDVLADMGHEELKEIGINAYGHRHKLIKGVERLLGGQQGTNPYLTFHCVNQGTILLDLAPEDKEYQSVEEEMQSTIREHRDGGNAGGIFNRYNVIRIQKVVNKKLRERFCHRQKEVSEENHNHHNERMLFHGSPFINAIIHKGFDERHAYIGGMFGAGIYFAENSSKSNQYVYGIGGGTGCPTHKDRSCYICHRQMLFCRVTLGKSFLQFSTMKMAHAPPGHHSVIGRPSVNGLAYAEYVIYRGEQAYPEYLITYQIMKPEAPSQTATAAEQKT
UniProt Q9ULT6, residues 56-936: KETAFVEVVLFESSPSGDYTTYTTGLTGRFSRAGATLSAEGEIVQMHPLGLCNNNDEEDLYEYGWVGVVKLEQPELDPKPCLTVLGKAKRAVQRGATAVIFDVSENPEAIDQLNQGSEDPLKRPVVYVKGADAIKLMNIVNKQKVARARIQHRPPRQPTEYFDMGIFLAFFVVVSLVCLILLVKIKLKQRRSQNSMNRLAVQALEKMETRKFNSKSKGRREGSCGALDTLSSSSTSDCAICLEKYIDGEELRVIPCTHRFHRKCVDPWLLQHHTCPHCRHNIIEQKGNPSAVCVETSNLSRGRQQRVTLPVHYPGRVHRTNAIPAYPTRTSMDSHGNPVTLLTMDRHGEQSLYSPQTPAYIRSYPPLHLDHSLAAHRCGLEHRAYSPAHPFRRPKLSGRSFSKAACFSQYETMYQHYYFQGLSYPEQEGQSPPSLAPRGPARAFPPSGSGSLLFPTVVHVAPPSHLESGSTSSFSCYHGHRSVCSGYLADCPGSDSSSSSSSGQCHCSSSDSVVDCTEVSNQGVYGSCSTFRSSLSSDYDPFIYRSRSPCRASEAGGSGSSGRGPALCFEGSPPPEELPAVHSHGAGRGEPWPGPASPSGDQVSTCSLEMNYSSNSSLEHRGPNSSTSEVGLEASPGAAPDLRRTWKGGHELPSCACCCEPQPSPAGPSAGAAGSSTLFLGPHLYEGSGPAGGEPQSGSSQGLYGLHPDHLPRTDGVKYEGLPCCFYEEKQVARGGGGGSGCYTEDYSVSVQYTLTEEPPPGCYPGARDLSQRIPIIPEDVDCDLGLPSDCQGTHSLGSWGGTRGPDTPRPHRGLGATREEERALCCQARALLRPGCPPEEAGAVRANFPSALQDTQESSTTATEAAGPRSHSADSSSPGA

T1: TurboID-DVL3 WT (human) (UniProt Q92997)
T1 sequence: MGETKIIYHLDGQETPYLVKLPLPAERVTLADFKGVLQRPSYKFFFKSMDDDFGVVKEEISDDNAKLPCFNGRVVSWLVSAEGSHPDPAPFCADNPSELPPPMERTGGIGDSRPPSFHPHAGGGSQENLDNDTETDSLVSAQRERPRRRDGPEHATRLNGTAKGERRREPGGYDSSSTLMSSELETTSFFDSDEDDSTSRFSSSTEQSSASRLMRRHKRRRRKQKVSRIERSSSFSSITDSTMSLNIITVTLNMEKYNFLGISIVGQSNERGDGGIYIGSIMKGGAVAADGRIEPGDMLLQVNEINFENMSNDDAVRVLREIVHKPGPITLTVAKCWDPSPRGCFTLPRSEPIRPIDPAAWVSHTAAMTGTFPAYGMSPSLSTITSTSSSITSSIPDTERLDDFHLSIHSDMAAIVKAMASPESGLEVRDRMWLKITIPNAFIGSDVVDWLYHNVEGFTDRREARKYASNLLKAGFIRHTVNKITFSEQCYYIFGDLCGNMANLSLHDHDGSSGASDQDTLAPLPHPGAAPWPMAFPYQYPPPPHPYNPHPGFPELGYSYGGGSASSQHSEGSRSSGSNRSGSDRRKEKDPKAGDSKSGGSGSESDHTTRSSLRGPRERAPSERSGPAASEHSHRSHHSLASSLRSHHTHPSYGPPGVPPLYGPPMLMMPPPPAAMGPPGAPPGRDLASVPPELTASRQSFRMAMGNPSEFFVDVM

B1: FZD3 (receptor, UniProt Q9NPG1 23-666)
chain: HSLFSCEPITLRMCQDLPYNTTFMPNLLNHYDQQTAALAMEPFHPMVNLDCSRDFRPFLCALYAPICMEYGRVTLPCRRLCQRAYSECSKLMEMFGVPWPEDMECSRFPDCDEPYPRLVDLNLAGEPTEGAPVAVQRDYGFWCPRELKIDPDLGYSFLHVRDCSPPCPNMYFRREELSFARYFIGLISIICLSATLFTFLTFLIDVTRFRYPERPIIFYAVCYMMVSLIFFIGFLLEDRVACNASIPAQYKASTVTQGSHNKACTMLFMILYFFTMAGSVWWVILTITWFLAAVPKWGSEAIEKKALLFHASAWGIPGTLTIILLAMNKIEGDNISGVCFVGLYDVDALRYFVLAPLCLYVVVGVSLLLAGIISLNRVRIEIPLEKENQDKLVKFMIRIGVFSILYLVPLLVVIGCYFYEQAYRGIWETTWIQERCREYHIPCPYQVTQMSRPDLILFLMKYLMALIVGIPSVFWVGSKKTCFEWASFFHGRRKKEIVNESRQVLQEPDFAQSLLRDPNTPIIRKSRGTSTQGTSTHASSTQLAMVDDQRSKAGSIHSKVSSYHGSLHRSRDGRYTPCSYRGMEERLPHGSMSRLTDHSRHSSSHRLNEQSRHSSIRDLSNNPMTHITHGTSMNRVIEEDGTSA
B2: VANGL1 (protein, UniProt Q8TAA9 1-524)
chain: MDTESTYSGYSYYSSHSKKSHRQGERTRERHKSPRNKDGRGSEKSVTIQPPTGEPLLGNDSTRTEEVQDDNWGETTTAITGTSEHSISQEDIARISKDMEDSVGLDCKRYLGLTVASFLGLLVFLTPIAFILLPPILWRDELEPCGTICEGLFISMAFKLLILLIGTWALFFRKRRADMPRVFVFRALLLVLIFLFVVSYWLFYGVRILDSRDRNYQGIVQYAVSLVDALLFIHYLAIVLLELRQLQPMFTLQVVRSTDGESRFYSLGHLSIQRAALVVLENYYKDFTIYNPNLLTASKFRAAKHMAGLKVYNVDGPSNNATGQSRAMIAAAARRRDSSHNELYYEEAEHERRVKKRKARLVVAVEEAFIHIQRLQAEEQQKAPGEVMDPREAAQAIFPSMARALQKYLRITRQQNYHSMESILQHLAFCITNGMTPKAFLERYLSAGPTLQYDKDRWLSTQWRLVSDEAVTNGLRDGIVFVLKCLDFSLVVNVKKIPFIILSEEFIDPKSHKFVLRLQSETSV
B3: FZD6 (receptor, UniProt O60353 19-706)
chain: HSLFTCEPITVPRCMKMAYNMTFFPNLMGHYDQSIAAVEMEHFLPLANLECSPNIETFLCKAFVPTCIEQIHVVPPCRKLCEKVYSDCKKLIDTFGIRWPEELECDRLQYCDETVPVTFDPHTEFLGPQKKTEQVQRDIGFWCPRHLKTSGGQGYKFLGIDQCAPPCPNMYFKSDELEFAKSFIGTVSIFCLCATLFTFLTFLIDVRRFRYPERPIIYYSVCYSIVSLMYFIGFLLGDSTACNKADEKLELGDTVVLGSQNKACTVLFMLLYFFTMAGTVWWVILTITWFLAAGRKWSCEAIEQKAVWFHAVAWGTPGFLTVMLLAMNKVEGDNISGVCFVGLYDLDASRYFVLLPLCLCVFVGLSLLLAGIISLNHVRQVIQHDGRNQEKLKKFMIRIGVFSGLYLVPLVTLLGCYVYEQVNRITWEITWVSDHCRQYHIPCPYQAKAKARPELALFMIKYLMTLIVGISAVFWVGSKKTCTEWAGFFKRNRKRDPISESRRVLQESCEFFLKHNSKVKHKKKHYKPSSHKLKVISKSMGTSTGATANHGTSAVAITSHDYLGQETLTEIQTSPETSMREVKADGASTPRLREQDCGEPASPAASISRLSGEQVDGKGQAGSVSESARSEGRISPKSDITDTGLAQSNNLQVPSSSEPSSLKGSTSLLVHPVSGVRKEQGGGCHSDT
B4: TNKS2 (enzyme, UniProt Q9H2K2 1-1166)
chain: MSGRRCAGGGAACASAAAEAVEPAARELFEACRNGDVERVKRLVTPEKVNSRDTAGRKSTPLHFAAGFGRKDVVEYLLQNGANVQARDDGGLIPLHNACSFGHAEVVNLLLRHGADPNARDNWNYTPLHEAAIKGKIDVCIVLLQHGAEPTIRNTDGRTALDLADPSAKAVLTGEYKKDELLESARSGNEEKMMALLTPLNVNCHASDGRKSTPLHLAAGYNRVKIVQLLLQHGADVHAKDKGDLVPLHNACSYGHYEVTELLVKHGACVNAMDLWQFTPLHEAASKNRVEVCSLLLSYGADPTLLNCHNKSAIDLAPTPQLKERLAYEFKGHSLLQAAREADVTRIKKHLSLEMVNFKHPQTHETALHCAAASPYPKRKQICELLLRKGANINEKTKEFLTPLHVASEKAHNDVVEVVVKHEAKVNALDNLGQTSLHRAAYCGHLQTCRLLLSYGCDPNIISLQGFTALQMGNENVQQLLQEGISLGNSEADRQLLEAAKAGDVETVKKLCTVQSVNCRDIEGRQSTPLHFAAGYNRVSVVEYLLQHGADVHAKDKGGLVPLHNACSYGHYEVAELLVKHGAVVNVADLWKFTPLHEAAAKGKYEICKLLLQHGADPTKKNRDGNTPLDLVKDGDTDIQDLLRGDAALLDAAKKGCLARVKKLSSPDNVNCRDTQGRHSTPLHLAAGYNNLEVAEYLLQHGADVNAQDKGGLIPLHNAASYGHVDVAALLIKYNACVNATDKWAFTPLHEAAQKGRTQLCALLLAHGADPTLKNQEGQTPLDLVSADDVSALLTAAMPPSALPSCYKPQVLNGVRSPGATADALSSGPSSPSSLSAASSLDNLSGSFSELSSVVSSSGTEGASSLEKKEVPGVDFSITQFVRNLGLEHLMDIFEREQITLDVLVEMGHKELKEIGINAYGHRHKLIKGVERLISGQQGLNPYLTLNTSGSGTILIDLSPDDKEFQSVEEEMQSTVREHRDGGHAGGIFNRYNILKIQKVCNKKLWERYTHRRKEVSEENHNHANERMLFHGSPFVNAIIHKGFDERHAYIGGMFGAGIYFAENSSKSNQYVYGIGGGTGCPVHKDRSCYICHRQLLFCRVTLGKSFLQFSAMKMAHSPPGHHSVTGRPSVNGLALAEYVIYRGEQAYPEYLITYQIMRPEGMVDG

The first assay deals with TurboID-DVL3 Δ S/T (human) (UniProt Q92997). Kind of assay: proximity labelling; TurboID fused N-terminally to DVL3 in Flp-In T-REx 293 cells, doxycycline 24 hours, 50 μM biotin 30 min, streptavidin pull-down, LC-MS/MS (DIA); compared with TurboID alone and with WT.
As to AXIN1 (from UniProt O15169 1-862), the binding entry is given as “binds”. With “CCDC88C/Daple (from UniProt Q9P219 1-2028)”, the binding result is reported as “binds”. Still for that read-out and setting: the value for “CK1ε (CSNK1E) (from UniProt P49674 1-416) (enzyme)” was “binds”; that for DVL2 (from UniProt O14641 1-736) was “binds”.

On to “FZD5 (from UniProt Q13467 27-585) (receptor)”, for which the binding entry is recorded as “binds”.

For the molecule “RNF43 (from UniProt Q68DV7 24-783) (enzyme)”, the binding result is on record as “binds”. On the same count and under the same terms, with “RYK (from UniProt P34925 26-607) (receptor)” the entry was “binds”; with “TNKS (from UniProt O95271 1-1327) (enzyme)”, “binds”; with “ZNRF3 (from UniProt Q9ULT6 56-936) (enzyme)”, “binds”. Still for that read-out and setting: with B1 the entry was “binds”. As to B2, the binding entry was “binds”. Still for that read-out and setting: with B3 the entry was “binds”; with B4, “binds”.

For the next assay, the target named is T1, TurboID-DVL3 WT (human). The description is as above.
Turning to AXIN1 (from UniProt O15169 1-862), the binding entry is on record as “binds”. On the same count and under the same terms, with “CCDC88C/Daple (from UniProt Q9P219 1-2028)” the entry was “binds”; with “CK1ε (CSNK1E) (from UniProt P49674 1-416) (enzyme)”, “binds”. Regarding DVL2 (from UniProt O14641 1-736), the binding entry is given as “binds”. Same read-out and setting: the value for “TNKS (from UniProt O95271 1-1327) (enzyme)” was “binds”.

In the case of B2, the binding entry is given as “binds”.

On to B4, for which the binding entry is listed as “binds”.

(Values after paper PMC13170675, “A Wnt-induced conformational phospho-switch in DVL3 controls association with Frizzled receptors and Wnt/β-catenin signaling” (Science Advances, 2026).)
